Reference: the supplement of paper PMC12067093, “Discovery and optimisation of a covalent ligand for TRIM25 and its application to targeted protein ubiquitination” (Chemical Science, 2025)
The list shows a part of the results.

The chains behind the UniProt entries cited, without tags or fusion partners. Where a name states a change or a piece, a line headed by the entry shows the natural chain unless it says otherwise.
UniProt Q9P2X3: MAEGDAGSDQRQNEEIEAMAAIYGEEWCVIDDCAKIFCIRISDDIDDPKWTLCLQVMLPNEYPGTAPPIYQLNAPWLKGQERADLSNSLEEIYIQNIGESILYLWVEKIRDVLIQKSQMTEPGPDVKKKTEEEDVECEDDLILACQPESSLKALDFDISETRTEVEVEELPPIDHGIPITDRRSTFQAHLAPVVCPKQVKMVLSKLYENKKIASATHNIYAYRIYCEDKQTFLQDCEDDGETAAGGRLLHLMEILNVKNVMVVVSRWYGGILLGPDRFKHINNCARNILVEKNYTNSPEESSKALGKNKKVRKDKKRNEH
UniProt P50213: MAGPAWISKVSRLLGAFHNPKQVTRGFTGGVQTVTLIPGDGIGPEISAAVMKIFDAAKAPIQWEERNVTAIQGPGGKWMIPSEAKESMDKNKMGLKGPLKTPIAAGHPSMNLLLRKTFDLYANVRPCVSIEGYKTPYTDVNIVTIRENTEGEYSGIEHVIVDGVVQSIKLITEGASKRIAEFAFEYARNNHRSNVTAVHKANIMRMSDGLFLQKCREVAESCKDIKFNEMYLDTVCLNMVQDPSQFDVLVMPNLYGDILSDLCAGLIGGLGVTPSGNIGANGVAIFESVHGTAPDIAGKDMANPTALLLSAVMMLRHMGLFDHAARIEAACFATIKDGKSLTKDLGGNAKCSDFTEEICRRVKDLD
UniProt Q96LB3: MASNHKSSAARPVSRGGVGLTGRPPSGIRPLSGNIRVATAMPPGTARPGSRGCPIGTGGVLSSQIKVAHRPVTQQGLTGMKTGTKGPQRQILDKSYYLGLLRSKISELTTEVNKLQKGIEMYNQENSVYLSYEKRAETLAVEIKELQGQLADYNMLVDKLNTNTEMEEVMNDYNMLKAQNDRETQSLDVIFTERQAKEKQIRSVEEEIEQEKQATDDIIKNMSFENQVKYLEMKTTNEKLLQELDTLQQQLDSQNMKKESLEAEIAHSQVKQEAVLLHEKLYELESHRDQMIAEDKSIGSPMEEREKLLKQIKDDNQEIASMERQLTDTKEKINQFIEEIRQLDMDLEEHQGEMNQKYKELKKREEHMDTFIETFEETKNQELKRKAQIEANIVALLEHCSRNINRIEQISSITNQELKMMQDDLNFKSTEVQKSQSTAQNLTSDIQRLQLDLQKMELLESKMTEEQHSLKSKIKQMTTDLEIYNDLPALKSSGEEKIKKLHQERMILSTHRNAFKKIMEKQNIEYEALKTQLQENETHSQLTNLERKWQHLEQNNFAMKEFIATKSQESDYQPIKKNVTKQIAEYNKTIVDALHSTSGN
UniProt P11717, whole entry, looked up: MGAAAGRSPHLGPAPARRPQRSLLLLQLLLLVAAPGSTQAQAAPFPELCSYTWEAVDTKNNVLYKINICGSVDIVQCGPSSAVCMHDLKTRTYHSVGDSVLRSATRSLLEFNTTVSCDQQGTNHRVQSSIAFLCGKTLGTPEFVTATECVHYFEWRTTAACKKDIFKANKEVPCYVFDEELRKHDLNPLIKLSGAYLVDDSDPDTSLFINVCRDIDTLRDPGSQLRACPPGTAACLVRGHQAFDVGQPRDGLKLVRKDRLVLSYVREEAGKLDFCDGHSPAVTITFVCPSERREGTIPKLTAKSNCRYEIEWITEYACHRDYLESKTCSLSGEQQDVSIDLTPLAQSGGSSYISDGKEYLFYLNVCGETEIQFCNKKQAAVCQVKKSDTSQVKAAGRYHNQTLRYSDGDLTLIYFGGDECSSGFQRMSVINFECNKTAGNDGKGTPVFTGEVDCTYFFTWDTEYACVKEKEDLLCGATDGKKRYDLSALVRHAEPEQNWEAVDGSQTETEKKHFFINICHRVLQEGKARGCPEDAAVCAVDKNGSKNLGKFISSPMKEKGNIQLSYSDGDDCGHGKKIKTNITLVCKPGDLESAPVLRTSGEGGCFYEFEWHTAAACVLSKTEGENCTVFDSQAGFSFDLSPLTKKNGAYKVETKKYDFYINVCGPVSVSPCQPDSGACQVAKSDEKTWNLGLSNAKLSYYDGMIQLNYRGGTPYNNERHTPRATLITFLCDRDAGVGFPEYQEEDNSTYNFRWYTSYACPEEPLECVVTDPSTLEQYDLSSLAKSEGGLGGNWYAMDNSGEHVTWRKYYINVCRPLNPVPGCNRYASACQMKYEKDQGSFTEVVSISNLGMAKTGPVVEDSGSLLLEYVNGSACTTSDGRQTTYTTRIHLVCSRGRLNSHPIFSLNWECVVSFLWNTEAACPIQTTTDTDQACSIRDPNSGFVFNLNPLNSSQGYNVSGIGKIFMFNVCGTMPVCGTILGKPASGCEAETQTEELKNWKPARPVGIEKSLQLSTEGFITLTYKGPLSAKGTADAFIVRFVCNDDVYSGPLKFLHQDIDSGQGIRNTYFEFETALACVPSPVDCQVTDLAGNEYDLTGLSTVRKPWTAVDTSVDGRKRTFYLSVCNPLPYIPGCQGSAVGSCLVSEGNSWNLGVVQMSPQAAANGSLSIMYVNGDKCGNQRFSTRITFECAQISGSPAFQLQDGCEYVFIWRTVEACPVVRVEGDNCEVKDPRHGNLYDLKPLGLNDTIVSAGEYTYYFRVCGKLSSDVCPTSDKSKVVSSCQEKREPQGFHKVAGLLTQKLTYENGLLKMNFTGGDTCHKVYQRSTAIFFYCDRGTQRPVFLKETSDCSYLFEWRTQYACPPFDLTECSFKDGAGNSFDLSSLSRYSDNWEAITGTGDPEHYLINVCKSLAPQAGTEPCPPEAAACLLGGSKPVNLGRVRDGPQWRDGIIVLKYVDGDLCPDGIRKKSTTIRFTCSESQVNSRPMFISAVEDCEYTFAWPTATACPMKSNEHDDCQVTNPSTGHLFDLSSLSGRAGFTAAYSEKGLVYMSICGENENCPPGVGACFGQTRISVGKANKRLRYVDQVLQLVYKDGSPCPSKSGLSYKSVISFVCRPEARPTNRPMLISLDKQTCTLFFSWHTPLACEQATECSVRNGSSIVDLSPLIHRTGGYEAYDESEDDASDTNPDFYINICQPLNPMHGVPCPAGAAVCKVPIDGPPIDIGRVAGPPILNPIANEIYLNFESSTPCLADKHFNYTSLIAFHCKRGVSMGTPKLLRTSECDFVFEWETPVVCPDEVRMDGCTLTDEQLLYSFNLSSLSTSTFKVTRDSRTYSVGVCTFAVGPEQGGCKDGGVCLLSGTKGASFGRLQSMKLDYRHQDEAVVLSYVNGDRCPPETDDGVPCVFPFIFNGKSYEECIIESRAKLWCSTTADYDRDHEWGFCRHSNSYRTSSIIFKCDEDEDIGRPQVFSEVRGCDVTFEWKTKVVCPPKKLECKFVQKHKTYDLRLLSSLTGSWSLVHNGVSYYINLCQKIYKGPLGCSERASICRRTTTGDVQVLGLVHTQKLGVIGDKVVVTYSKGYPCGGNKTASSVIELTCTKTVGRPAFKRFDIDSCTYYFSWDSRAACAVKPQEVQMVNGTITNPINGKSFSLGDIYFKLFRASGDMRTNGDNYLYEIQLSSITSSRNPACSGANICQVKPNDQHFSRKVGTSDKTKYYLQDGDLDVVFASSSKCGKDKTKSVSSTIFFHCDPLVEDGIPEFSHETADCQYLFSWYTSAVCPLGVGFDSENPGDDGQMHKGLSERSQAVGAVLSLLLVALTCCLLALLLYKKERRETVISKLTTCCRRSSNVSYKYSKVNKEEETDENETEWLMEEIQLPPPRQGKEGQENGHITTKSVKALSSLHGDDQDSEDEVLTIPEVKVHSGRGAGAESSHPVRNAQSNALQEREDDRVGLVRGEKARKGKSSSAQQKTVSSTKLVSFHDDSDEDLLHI
UniProt Q9NSE4: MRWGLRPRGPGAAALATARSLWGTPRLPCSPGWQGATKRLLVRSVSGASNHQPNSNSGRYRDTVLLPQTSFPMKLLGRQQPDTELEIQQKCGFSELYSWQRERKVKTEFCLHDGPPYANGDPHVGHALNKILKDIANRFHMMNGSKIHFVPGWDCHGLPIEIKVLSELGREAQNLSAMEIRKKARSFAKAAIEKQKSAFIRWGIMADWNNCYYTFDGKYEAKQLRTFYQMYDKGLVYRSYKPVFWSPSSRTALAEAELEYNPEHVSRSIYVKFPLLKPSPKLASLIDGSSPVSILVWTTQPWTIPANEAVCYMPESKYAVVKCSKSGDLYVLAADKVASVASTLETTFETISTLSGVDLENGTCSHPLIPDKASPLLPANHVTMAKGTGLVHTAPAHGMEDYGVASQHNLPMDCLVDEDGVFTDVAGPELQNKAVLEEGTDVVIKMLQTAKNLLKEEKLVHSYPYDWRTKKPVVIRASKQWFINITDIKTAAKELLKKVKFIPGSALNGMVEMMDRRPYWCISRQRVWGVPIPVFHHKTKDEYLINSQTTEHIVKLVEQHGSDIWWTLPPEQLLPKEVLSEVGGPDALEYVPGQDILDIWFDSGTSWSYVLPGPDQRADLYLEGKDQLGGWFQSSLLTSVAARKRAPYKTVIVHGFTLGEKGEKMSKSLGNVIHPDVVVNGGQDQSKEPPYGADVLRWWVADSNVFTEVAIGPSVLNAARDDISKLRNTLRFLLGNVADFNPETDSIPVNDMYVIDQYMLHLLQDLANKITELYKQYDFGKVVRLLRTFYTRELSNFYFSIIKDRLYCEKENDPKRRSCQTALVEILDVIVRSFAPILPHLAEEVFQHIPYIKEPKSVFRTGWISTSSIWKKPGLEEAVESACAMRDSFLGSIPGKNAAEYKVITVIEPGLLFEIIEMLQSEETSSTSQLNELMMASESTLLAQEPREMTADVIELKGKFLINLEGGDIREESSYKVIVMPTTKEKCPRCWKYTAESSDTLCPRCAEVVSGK
UniProt P48735: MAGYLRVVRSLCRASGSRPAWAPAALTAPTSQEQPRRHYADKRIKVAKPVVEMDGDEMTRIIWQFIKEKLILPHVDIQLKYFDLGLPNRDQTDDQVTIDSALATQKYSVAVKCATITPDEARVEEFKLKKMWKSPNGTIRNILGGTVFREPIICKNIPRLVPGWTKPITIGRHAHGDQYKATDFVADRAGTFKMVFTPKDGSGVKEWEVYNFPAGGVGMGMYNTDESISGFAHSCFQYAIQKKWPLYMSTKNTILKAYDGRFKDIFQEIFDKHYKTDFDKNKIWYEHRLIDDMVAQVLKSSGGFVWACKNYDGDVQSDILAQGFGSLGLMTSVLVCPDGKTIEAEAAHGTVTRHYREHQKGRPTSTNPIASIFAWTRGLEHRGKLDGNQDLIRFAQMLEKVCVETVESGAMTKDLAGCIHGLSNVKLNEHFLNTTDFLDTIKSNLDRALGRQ
UniProt P41252: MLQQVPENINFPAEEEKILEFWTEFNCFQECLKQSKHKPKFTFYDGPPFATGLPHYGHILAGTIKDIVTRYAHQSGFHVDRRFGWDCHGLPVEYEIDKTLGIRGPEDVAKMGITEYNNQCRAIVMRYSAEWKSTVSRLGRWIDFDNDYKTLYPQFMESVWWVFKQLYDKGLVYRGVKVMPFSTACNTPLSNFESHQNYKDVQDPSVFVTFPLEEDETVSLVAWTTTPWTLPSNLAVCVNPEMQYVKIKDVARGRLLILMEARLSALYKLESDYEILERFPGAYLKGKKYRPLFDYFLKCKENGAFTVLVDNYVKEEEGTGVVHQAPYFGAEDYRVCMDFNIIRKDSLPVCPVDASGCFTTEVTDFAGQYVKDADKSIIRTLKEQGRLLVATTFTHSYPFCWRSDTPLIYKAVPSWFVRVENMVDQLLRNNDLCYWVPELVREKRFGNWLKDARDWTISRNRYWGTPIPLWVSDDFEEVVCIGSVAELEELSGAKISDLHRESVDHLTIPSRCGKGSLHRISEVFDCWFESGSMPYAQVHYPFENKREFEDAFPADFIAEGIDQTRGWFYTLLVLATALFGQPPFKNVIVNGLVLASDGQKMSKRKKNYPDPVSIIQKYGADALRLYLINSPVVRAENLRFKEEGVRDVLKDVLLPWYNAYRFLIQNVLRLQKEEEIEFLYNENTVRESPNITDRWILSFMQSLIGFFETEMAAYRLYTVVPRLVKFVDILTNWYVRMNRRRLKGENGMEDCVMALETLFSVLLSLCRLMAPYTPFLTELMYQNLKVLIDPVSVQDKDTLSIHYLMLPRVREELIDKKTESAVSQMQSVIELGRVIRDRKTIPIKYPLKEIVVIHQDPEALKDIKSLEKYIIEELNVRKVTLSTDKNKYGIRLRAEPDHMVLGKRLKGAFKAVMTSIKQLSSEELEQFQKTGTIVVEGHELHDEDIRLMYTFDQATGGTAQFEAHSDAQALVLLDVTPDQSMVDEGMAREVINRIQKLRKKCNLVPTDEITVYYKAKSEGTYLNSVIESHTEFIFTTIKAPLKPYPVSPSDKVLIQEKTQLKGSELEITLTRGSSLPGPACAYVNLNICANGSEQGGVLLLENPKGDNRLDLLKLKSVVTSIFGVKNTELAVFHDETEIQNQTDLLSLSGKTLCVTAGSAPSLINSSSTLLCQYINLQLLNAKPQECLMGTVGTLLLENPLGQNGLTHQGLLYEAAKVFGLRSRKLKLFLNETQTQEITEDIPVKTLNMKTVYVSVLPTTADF

Compound: CC1Cc2ccccc2N1C(=O)C1CCCN(C1)C(=O)CCl (mixture of isomers) [TRIM25 ligand 11 (diastereomer mixture)]
Assay: probe-labelled cysteine peptide fold change vs DMSO (competition) (log2 fold change); higher = less target engagement (more negative = stronger competition)
Details: THP-1, incubation time: 4 h
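Note: competitive chemoproteomic profiling in live THP-1 cells with an iodoacetamide desthiobiotin (IA-DTB) probe, comparing probe-labelled peptide intensities in compound-treated cells against DMSO-treated controls.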

Target	probe-labelled cysteine peptide fold change (10 µM)	probe-labelled cysteine peptide fold change (50 µM)
IMPDH2_P12268_173_DIDFLKEEEHDCFLEEIMTKR (UniProt P12268)	-0.465	-0.3
IMPACT_Q9P2X3_137+145_KKTEEEDVECEDDLILACQPESSLK (UniProt Q9P2X3)	-0.0781	-0.239
IGFBP4_P22692_215_QCHPALDGQR (UniProt P22692)	-0.127	-0.418
HUWE1_Q7Z6Z7_19_KTPTEAPADCR (UniProt Q7Z6Z7)	0.0548	-0.157
ILVBL_A1L0T0_173_GALQAVDQLSLFRPLCK (UniProt A1L0T0)	-0.0393	-0.0788
IDH3A_P50213_127_TFDLYANVRPCVSIEGYK (UniProt P50213)	0.0495	-0.141
HUWE1_Q7Z6Z7_612_EVLGSLPNVFSALCLNAR (UniProt Q7Z6Z7)	0.171	0.0786
INPP1_P49441_97_LCSTEEETAELLSK (UniProt P49441)	-0.0128	0.0897
IL6R_P08887_277_DLQHHCVIHDAWSGLR (UniProt P08887)	-0.0505	-0.079
IL17RA_Q96F46-2_303_HSATVSCPEMPDTPEPIPGPGSEK (UniProt Q96F46)	-0.0703	0.116
IFT74_Q96LB3_400_AQIEANIVALLEHCSR (UniProt Q96LB3)	-0.0935	-0.0548
IMPDH2_P12268_246_QLLCGAAIGTHEDDK (UniProt P12268)	0.0786	0.0887
IGF2R_P11717_275+288_EEAGKLDFCDGHSPAVTITFVCPSER (UniProt P11717)	0.00141	-0.0605
IK_Q13123_263_ADCPTMEAQTTLTTNDIVISK (UniProt Q13123)	-0.0926	-0.184
IGF2R_P11717_1942_LWCSTTADYDRDHEWGFCR (UniProt P11717)	-0.03	0.0902
IGF2R_P11717_420_YSDGDLTLIYFGGDECSSGFQR (UniProt P11717)	0.136	-0.246
IGF2R_P11717_149_TLGTPEFVTATECVHYFEWR (UniProt P11717)	-0.0703	-0.305
IGF2R_P11717_475_EDLLCGATDGK (UniProt P11717)	0.141	0.139
IARS2_Q9NSE4_819_RSCQTALVEILDVIVR (UniProt Q9NSE4)	0.00877	-0.0616

Target	probe-labelled cysteine peptide fold change (10 µM)	probe-labelled cysteine peptide fold change (50 µM)
IKBKG_Q9Y6K9_54_CLEENQELRDAIR (UniProt Q9Y6K9)	-0.189	-0.272
IARS2_Q9NSE4_1002_YTAESSDTLCPR (UniProt Q9NSE4)	0.0593	0.0556
IMPDH2_P12268_173_EEEHDCFLEEIMTK (UniProt P12268)	0.174	0.0149
IMPACT_Q9P2X3_137_KKTEEEDVECEDDLILACQPESSLK (UniProt Q9P2X3)	-0.217	-0.0824
IDUA_P35475_241_HCHDGTNFFTGEAGVR (UniProt P35475)	0.149	-0.0722
IGF2R_P11717_134_VQSSIAFLCGK (UniProt P11717)	-0.36	-0.452
HUWE1_Q7Z6Z7_3372_ACSPCSSQSSSSGICTDFWDLLVK (UniProt Q7Z6Z7)	-0.0349	-0.0747
IGF2R_P11717_531_GCPEDAAVCAVDK (UniProt P11717)	0.0614	0.0238
HUWE1_Q7Z6Z7_2721_ENRDQSAQCTASK (UniProt Q7Z6Z7)	-0.544	-0.527
HUWE1_Q7Z6Z7_1278_MAESMLAILCHILR (UniProt Q7Z6Z7)	0.0396	0.235
HUWE1_Q7Z6Z7_3635_HLGYTLCK (UniProt Q7Z6Z7)	-0.0958	-0.0193
IGF2R_P11717_1476_FTCSESQVNSR (UniProt P11717)	0.13	0.0844
IDH2_P48735_418_DLAGCIHGLSNVK (UniProt P48735)	0.0586	0.00231
IARS_P41252_87_FGWDCHGLPVEYEIDK (UniProt P41252)	0.0356	0.0848
IDNK_Q5T6J7_83_VVLACSALK (UniProt Q5T6J7)	0.0519	0.189
IARS_P41252_336_EEEGTGVVHQAPYFGAEDYRVCMDFNIIR (UniProt P41252)	0.139	-0.315
IMPDH1_P20839_468_FVPYLIAGIQHGCQDIGAR (UniProt P20839)	-0.0383	0.188
IMPA1_P29218_125_KIEFGVVYSCVEGK (UniProt P29218)	0.172	0.175
HUWE1_Q7Z6Z7_19_TPTEAPADCR (UniProt Q7Z6Z7)	-0.0697	-0.167
